{"sequences": {"note": "The chains behind the UniProt entries cited, without tags or fusion partners.", "UniProt Q0JBA9, entry or part of it": "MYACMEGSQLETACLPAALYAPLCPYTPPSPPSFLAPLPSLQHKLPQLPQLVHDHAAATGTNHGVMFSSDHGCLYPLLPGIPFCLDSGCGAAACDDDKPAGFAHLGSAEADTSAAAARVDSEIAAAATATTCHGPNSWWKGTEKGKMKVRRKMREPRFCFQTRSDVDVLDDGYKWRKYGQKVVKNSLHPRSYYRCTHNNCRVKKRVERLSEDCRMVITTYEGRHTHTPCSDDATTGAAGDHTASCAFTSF"}, "source": "paper PMC7819943", "about": "“Rice protein-binding microarrays: a tool to detect cis-acting elements near promoter regions in rice”", "note": "The list shows a part of the results.", "data": [{"target": "OsWRKY34 (Oryza sativa, UniProt Q0JBA9 1-250)", "assay": "protein-binding microarray (RPBM); PBS, 2% BSA, 51.3 ng/ul salmon testes DNA, 50 uM zinc acetate, 200 nM TF, 25 C, 1 h; high values mean tight binding", "conditions": "protein: recombinant; tags: N-terminal polyhistidine and DsRed monomer fusion (pET32a); label: CyDye5-dUTP incorporated in the synthesized complementary strand; 3' TTTTT single-stranded linker to array surface; dsDNA, one strand shown", "summary_of_the_method": "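Binding signal here means per-feature fluorescence intensity in arbitrary units. The values were read on an Axon 4000B scanner after a custom Agilent array, double-stranded by primer extension with Cy5-dUTP, was incubated with 200 nM protein at 25 °C for 1 h in PBS with 2% BSA, salmon testes DNA and 50 µM zinc acetate, then washed. The proteins were transcription factors with an N-terminal polyhistidine tag and DsRed, expressed in E. coli BL21-CodonPlus and purified on Ni–NTA.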", "values": [{"sequence": "CGTGTTGCTGGCATTTTTTGTCCCTGAGCTTTTAGTTGTACGGAGTCACCTAGTGCAG", "binding signal": "8560 fluorescence intensity (a.u.)"}, {"sequence": "TCTTTTCCCTTATTTTTGCCTTTTATTGGATCGGACATGTCGGAGTCACCTAGTGCAG", "binding signal": "8840 fluorescence intensity (a.u.)"}, {"sequence": "GTACATCATCTTTTCCACCTTTATTTACTGAGTTCGGTTGCGGAGTCACCTAGTGCAG", "binding signal": "9280 fluorescence intensity (a.u.)"}, {"sequence": "TTTCAAAATATTTGACTCCGTTGATTTTTTTAGCACATGTCGGAGTCACCTAGTGCAG", "binding signal": "9070 fluorescence intensity (a.u.)"}, {"sequence": "GATCAGGAGCAGTCTCGTTGACTTTGCTAAAATTTTATTCCGGAGTCACCTAGTGCAG", "binding signal": "10100 fluorescence intensity (a.u.)"}, {"sequence": "GACAATTACTTAGTCCTCACCTACCGTCGACCTCACACGTCGGAGTCACCTAGTGCAG", "binding signal": "10200 fluorescence intensity (a.u.)"}, {"sequence": "CAAAAGCTTTCCAACTTGCCAGCCATTGCCCTCACCGTCTCGGAGTCACCTAGTGCAG", "binding signal": "8310 fluorescence intensity (a.u.)"}, {"sequence": "TTGTTCATGAGTGTCGTGTTTAAATACTCCCTACGGTCACCGGAGTCACCTAGTGCAG", "binding signal": "9040 fluorescence intensity (a.u.)"}, {"sequence": "CCAATTCCTGCTAAAATTTTATTACCTTTTTGGACGAAAGCGGAGTCACCTAGTGCAG", "binding signal": "8070 fluorescence intensity (a.u.)"}, {"sequence": "ATTTGTCGGCTTAGCCATCGTTGCATCAAGAACTGGTGATCGGAGTCACCTAGTGCAG", "binding signal": "8070 fluorescence intensity (a.u.)"}, {"sequence": "GATCTCTCTCTCATCAGGACCCCGGCCTTAAGTTGTTTCTCGGAGTCACCTAGTGCAG", "binding signal": "9120 fluorescence intensity (a.u.)"}, {"sequence": "GCCGCATTCACGCTGACCCGACGCACCGCCGCCGCGGCGCCGGAGTCACCTAGTGCAG", "binding signal": "8060 fluorescence intensity (a.u.)"}, {"sequence": "AGGTGGGGAGCGGCGGACTCGCGGTTGGGTTTGTGTGGTTCGGAGTCACCTAGTGCAG", "binding signal": "14200 fluorescence intensity (a.u.)"}, {"sequence": "CACCCGCACCCGCCCGCACGGCCGCGCCCGCGTCACCACCCGGAGTCACCTAGTGCAG", "binding signal": "8090 fluorescence intensity (a.u.)"}, {"sequence": "TAATTGCCTATTGGCTCGTTCTGGTTAAATTCATCGTTTCCGGAGTCACCTAGTGCAG", "binding signal": "10700 fluorescence intensity (a.u.)"}, {"sequence": "AATTATGTATTGGCTAGTCAAGTTAAGCAGGTCTTTTATGCGGAGTCACCTAGTGCAG", "binding signal": "8220 fluorescence intensity (a.u.)"}, {"sequence": "ATTGTGTTATGCCACACTTTCTTAACTTTGGGACCCACATCGGAGTCACCTAGTGCAG", "binding signal": "8970 fluorescence intensity (a.u.)"}, {"sequence": "GAACACGATGACATCGGATCGGGTCGGTTTCTCTCTTGCTCGGAGTCACCTAGTGCAG", "binding signal": "9010 fluorescence intensity (a.u.)"}, {"sequence": "TTTATTCGTTACTCCCTCCGTTTTATAATATAAATGATATCGGAGTCACCTAGTGCAG", "binding signal": "9940 fluorescence intensity (a.u.)"}, {"sequence": "GGCCCACTCAACCACGTTTCAGTTACTCCTTAATGACCCACGGAGTCACCTAGTGCAG", "binding signal": "9060 fluorescence intensity (a.u.)"}, {"sequence": "TTTACTGAGATCAACAATAACCTATATGTATTCTTTTTAACGGAGTCACCTAGTGCAG", "binding signal": "8920 fluorescence intensity (a.u.)"}, {"sequence": "ATCTCTACCAAAGTGTCACATTTGTCTCGTAGGATAACTTCGGAGTCACCTAGTGCAG", "binding signal": "8410 fluorescence intensity (a.u.)"}, {"sequence": "TTTTCGTAAAGTTCCGCGCACTAACCCGCGCCCCAACCCTCGGAGTCACCTAGTGCAG", "binding signal": "8750 fluorescence intensity (a.u.)"}, {"sequence": "TTTTGTCTGCTCTTCAATTGCTTTCATATGTATAAACAAGCGGAGTCACCTAGTGCAG", "binding signal": "8940 fluorescence intensity (a.u.)"}, {"sequence": "TGTTTTCTTGTTCATGTCTGAATTCCGATTTTCTCCTCCTCGGAGTCACCTAGTGCAG", "binding signal": "14200 fluorescence intensity (a.u.)"}, {"sequence": "TGCTGATGTTTTTTTTTGTTTGACTTGTAACTTGTAAGATCGGAGTCACCTAGTGCAG", "binding signal": "9130 fluorescence intensity (a.u.)"}, {"sequence": "TATTGGAACTATTACGACCACATGCTCTCTTCCTACTCTCCGGAGTCACCTAGTGCAG", "binding signal": "9770 fluorescence intensity (a.u.)"}, {"sequence": "CCCATGGCACCATCCCTGTTTATGATTTTTTTTAAAAAAACGGAGTCACCTAGTGCAG", "binding signal": "9730 fluorescence intensity (a.u.)"}, {"sequence": "GCACGCACGCACAAGATACAGTATATCTCACCGTCAGTTACGGAGTCACCTAGTGCAG", "binding signal": "9520 fluorescence intensity (a.u.)"}, {"sequence": "TTATCCTTAAACTTAAACTTTGCACATGGCCCCTTAAACTCGGAGTCACCTAGTGCAG", "binding signal": "8040 fluorescence intensity (a.u.)"}, {"sequence": "TCACTGAATTATTGTCGTGCATTATTTTATCCACTTCCTACGGAGTCACCTAGTGCAG", "binding signal": "9090 fluorescence intensity (a.u.)"}, {"sequence": "TCAGGTTGTGATTTTGGTCATGGGCCTTTGCGATTAGCCACGGAGTCACCTAGTGCAG", "binding signal": "8190 fluorescence intensity (a.u.)"}, {"sequence": "TGTTGTGGTGATGTCTTGCGTAATTTTTGTAGATCCACATCGGAGTCACCTAGTGCAG", "binding signal": "9740 fluorescence intensity (a.u.)"}, {"sequence": "ACGAATAATAGAGACCAGCATTTGTACATTCTATATTATACGGAGTCACCTAGTGCAG", "binding signal": "8150 fluorescence intensity (a.u.)"}, {"sequence": "TTGAACATGATTTGTGGTGGGTGGAGTGATTTATGTCATTCGGAGTCACCTAGTGCAG", "binding signal": "9940 fluorescence intensity (a.u.)"}, {"sequence": "CCTCCTCACCGGCAATTAATGCCGCCAACTACCAGATCCACGGAGTCACCTAGTGCAG", "binding signal": "8170 fluorescence intensity (a.u.)"}, {"sequence": "CCTGCTGCTCCCGCGCAATCCTCTCTCGCTGCCGGTGGGGCGGAGTCACCTAGTGCAG", "binding signal": "10500 fluorescence intensity (a.u.)"}, {"sequence": "TTCTTCTCGTAAGTTAAGATATGCCGCTTCTTTGCGTTCACGGAGTCACCTAGTGCAG", "binding signal": "8500 fluorescence intensity (a.u.)"}, {"sequence": "TGGTTTTCATTTGACATGACGTCTACGTGACGCCTACTTGCGGAGTCACCTAGTGCAG", "binding signal": "8450 fluorescence intensity (a.u.)"}, {"sequence": "CCTTTGTGTCGTTTCTCTTAATTTATTTCGTGTAAACCTTCGGAGTCACCTAGTGCAG", "binding signal": "10900 fluorescence intensity (a.u.)"}, {"sequence": "GCCGCGCCGCCTCGCCCGACGTCGTAGCAACCAAGCCACCCGGAGTCACCTAGTGCAG", "binding signal": "8680 fluorescence intensity (a.u.)"}, {"sequence": "AATACATCAATGTATTTTATGTTTTCCTCTGCATATACATCGGAGTCACCTAGTGCAG", "binding signal": "8380 fluorescence intensity (a.u.)"}]}]}
